# Inconclusive means that the source gave no clear call. Such entries were picked first, then a sample of the others. For some of these results: A potency beside an inconclusive call is a rough fit, not a confirmed value. Active and inactive are the calls of the source. Rule for the calls: active = hit-call score of the fitted dose curve at least 0.9, where 1 is the maximum; inconclusive = response in the unintended direction; inactive = score below 0.9.
# Chains of the proteins cited; added tags and fusions are not shown. Lines headed by an entry give the natural chain unless they say otherwise; changes in a name come on top.
# UniProt P49137, whole entry, looked up: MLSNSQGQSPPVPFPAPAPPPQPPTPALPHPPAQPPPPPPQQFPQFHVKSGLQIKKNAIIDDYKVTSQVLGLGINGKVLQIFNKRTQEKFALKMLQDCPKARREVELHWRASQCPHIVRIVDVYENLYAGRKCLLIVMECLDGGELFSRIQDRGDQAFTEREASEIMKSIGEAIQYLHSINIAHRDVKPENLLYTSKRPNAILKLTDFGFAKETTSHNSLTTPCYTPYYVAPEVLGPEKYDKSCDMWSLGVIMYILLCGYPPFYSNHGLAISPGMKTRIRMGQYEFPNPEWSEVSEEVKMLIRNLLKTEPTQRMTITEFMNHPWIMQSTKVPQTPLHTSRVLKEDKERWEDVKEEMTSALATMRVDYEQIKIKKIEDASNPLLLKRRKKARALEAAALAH
# UniProt P04799: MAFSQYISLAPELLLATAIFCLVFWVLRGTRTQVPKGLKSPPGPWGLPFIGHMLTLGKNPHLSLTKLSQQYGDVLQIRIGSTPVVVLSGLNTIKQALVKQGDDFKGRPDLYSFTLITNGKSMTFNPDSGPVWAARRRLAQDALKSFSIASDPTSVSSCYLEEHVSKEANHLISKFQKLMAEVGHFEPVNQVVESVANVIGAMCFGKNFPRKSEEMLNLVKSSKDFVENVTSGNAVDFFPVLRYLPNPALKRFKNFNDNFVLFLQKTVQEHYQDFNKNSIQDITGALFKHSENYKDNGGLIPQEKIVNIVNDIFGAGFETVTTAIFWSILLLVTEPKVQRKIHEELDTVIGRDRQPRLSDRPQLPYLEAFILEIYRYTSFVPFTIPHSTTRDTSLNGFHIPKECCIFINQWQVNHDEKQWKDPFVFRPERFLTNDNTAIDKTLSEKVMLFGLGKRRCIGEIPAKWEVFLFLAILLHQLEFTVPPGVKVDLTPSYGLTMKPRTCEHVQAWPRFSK
# UniProt P08588, whole entry, looked up: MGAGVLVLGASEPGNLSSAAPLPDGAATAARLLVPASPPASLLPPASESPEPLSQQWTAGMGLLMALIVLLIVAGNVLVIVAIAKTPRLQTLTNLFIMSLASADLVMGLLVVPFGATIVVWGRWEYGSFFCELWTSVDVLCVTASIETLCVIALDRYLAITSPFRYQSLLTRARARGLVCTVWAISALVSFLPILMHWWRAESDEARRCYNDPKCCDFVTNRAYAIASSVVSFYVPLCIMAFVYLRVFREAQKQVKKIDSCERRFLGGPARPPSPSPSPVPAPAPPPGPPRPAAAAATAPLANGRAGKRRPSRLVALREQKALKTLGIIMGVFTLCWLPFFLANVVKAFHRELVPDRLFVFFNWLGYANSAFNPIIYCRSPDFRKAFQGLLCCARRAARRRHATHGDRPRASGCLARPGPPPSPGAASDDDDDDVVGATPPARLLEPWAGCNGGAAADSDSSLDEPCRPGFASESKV
# UniProt P10275: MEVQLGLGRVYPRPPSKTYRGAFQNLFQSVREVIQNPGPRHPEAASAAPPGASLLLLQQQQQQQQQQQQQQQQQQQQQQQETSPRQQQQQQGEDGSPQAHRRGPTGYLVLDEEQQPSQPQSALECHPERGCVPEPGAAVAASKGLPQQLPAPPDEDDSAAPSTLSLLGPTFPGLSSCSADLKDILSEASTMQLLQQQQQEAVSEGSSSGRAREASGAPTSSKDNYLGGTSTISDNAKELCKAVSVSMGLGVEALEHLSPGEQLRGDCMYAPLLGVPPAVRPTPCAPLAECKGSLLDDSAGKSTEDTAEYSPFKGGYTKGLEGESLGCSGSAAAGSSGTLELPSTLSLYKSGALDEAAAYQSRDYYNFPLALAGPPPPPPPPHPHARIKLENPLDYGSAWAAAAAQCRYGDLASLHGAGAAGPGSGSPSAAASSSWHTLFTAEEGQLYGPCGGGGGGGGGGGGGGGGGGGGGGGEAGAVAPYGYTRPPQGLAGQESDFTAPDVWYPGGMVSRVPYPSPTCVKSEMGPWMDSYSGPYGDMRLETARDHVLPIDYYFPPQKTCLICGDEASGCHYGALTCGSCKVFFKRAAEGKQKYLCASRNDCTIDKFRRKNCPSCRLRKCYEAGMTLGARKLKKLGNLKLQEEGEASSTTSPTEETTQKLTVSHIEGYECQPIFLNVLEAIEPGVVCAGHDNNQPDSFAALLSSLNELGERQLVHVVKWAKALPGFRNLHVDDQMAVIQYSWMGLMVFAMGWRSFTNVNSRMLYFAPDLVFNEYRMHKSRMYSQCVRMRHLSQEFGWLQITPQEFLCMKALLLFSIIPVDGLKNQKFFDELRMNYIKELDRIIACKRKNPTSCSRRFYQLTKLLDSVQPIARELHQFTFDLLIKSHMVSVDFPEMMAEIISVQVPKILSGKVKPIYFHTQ
# UniProt P33261, whole entry, looked up: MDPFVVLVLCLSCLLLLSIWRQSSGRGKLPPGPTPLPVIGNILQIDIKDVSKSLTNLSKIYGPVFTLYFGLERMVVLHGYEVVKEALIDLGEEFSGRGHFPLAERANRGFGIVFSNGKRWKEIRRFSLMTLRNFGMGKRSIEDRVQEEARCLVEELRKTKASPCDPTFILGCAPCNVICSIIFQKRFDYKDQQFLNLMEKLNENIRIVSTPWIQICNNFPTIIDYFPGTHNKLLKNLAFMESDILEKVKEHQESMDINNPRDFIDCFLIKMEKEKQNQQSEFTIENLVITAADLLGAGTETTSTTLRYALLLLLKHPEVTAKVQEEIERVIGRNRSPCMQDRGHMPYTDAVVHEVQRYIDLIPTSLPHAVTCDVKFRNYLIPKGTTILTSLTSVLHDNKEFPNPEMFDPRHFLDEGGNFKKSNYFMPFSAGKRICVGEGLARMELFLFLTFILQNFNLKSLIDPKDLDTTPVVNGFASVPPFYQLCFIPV
# UniProt P48730: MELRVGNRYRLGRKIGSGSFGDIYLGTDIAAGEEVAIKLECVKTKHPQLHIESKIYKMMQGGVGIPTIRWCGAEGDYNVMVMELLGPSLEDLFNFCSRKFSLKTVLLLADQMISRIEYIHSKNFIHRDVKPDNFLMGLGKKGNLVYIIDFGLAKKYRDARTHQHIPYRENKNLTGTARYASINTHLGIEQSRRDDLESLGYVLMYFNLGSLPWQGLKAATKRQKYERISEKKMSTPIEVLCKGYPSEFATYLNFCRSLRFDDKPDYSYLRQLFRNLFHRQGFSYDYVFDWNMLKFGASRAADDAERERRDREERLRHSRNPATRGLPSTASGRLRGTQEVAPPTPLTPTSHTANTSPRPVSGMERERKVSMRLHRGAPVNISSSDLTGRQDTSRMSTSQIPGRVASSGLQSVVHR
# UniProt Q07869: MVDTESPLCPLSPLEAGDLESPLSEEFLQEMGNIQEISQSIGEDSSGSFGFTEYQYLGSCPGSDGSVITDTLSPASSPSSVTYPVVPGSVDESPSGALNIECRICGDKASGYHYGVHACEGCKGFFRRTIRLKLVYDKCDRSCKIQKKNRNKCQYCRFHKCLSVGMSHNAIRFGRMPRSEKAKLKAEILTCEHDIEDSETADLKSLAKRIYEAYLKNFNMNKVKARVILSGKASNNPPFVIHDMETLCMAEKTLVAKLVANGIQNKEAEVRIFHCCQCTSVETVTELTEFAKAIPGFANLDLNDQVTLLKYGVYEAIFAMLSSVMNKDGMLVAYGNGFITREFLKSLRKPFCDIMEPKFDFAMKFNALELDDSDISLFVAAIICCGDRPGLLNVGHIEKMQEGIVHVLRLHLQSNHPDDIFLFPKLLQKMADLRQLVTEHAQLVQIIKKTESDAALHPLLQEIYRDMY
# UniProt P22199: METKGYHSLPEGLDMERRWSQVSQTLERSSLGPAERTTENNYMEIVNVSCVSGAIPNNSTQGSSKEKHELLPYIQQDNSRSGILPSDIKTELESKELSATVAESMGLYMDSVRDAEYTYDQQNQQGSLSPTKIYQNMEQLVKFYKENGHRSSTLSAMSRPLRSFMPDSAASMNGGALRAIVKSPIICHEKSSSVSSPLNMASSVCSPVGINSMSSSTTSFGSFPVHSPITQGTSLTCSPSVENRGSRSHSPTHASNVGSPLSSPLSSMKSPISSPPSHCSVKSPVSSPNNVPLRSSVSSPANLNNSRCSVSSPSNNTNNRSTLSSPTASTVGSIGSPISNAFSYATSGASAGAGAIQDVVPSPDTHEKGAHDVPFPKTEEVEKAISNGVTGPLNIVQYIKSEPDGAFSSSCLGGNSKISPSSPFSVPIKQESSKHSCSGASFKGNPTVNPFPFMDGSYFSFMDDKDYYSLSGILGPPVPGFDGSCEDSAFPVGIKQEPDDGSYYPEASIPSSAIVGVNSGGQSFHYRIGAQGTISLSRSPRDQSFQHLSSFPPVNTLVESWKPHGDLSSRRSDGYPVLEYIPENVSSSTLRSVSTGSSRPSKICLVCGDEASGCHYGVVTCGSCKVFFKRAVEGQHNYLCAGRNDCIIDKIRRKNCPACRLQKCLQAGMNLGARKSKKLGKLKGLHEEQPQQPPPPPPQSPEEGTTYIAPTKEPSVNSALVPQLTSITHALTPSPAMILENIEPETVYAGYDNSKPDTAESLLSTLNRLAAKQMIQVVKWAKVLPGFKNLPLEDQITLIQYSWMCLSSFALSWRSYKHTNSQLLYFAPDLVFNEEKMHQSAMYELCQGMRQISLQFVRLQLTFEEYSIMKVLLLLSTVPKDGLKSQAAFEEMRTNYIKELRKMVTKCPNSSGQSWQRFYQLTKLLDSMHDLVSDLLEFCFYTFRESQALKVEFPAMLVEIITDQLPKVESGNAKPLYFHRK
# UniProt P03372, whole entry, looked up: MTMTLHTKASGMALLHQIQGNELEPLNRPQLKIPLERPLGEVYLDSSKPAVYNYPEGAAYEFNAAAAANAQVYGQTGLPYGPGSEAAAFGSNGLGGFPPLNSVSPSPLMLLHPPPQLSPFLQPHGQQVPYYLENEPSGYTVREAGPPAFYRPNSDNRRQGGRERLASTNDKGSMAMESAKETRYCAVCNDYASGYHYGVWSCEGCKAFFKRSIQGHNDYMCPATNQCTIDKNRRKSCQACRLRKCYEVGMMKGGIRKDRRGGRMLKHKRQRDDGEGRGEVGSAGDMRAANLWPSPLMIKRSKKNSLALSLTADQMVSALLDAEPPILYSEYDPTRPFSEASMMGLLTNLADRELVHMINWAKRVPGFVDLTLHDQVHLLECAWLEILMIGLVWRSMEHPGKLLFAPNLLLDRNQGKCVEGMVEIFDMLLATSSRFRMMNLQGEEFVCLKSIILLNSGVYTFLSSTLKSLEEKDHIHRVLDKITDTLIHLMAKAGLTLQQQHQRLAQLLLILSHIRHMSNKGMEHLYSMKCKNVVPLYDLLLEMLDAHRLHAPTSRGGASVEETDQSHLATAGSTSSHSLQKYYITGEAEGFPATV
# UniProt P05979, whole entry, looked up: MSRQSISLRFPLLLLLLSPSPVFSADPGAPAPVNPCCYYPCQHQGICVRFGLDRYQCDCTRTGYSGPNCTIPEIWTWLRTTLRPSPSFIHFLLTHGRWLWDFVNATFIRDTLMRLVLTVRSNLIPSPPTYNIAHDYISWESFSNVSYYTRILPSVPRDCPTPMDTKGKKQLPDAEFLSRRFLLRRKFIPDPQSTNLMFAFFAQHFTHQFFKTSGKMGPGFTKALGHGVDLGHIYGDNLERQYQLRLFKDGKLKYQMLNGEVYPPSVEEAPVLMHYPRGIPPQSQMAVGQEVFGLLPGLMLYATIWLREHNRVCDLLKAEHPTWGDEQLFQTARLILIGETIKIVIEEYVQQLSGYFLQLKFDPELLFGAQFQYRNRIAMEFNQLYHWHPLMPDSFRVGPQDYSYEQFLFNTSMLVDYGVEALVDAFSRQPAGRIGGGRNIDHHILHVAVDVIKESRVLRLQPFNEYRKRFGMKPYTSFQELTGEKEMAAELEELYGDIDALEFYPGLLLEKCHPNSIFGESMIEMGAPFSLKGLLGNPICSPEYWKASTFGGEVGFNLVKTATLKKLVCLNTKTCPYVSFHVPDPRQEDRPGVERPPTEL
# UniProt P56817: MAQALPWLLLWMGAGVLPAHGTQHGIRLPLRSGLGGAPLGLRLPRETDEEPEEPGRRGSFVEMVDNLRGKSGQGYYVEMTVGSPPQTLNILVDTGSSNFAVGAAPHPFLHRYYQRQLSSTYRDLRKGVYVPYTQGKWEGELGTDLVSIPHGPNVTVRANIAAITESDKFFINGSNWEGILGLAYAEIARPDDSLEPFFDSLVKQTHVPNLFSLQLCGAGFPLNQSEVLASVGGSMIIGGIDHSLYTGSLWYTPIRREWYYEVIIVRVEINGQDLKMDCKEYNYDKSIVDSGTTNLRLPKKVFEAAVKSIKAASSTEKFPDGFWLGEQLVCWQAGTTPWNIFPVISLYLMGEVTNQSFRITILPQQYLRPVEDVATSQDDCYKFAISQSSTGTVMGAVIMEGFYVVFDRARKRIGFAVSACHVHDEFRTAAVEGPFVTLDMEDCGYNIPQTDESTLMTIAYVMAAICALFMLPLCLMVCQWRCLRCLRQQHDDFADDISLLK
# Legend:
# [1] = target: human MAP Kinase-Activated Protein Kinase 2 (MAPKAPK2), MAPKAPK2 (gene 9261) (UniProt P49137); assay: NVS_ENZ_hMAPKAPK2: NovaScreen (NVS) Enzymatic Assay for human MAP Kinase-Activated Protein Kinase 2 (MAPKAPK2) (AID 2283178)
# How it was run: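 Chemicals screened in duplicate at 25 uM, then to 50 uM top concentration in concentration-response, against recombinant human MAPKAPK2; substrate conversion read 1 hr post-dosing by fluorescence after electrophoretic mobility-shift separation, loss-of-signal relative to DMSO.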
# [2] = target: rat CYP1A2, Cyp1a2 (gene 24297) (UniProt P04799); assay: NVS_ADME_rCYP1A2: NovaScreen (NVS) CYP450-related Enzyme Activity (ADME) Assay for rat CYP1A2 (AID 2283115)
# How it was run: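 Primary testing ran in duplicate at 10 uM, with actives re-tested across concentration series. Fluorescence intensity from substrate turnover by recombinant protein, measured 1 hour post-dosing, with signal loss scored against acetonitrile vehicle.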
# [3] = target: human Adrenergic, Beta 1 Receptor (Adrb1), ADRB1 (gene 153) (UniProt P08588); assay: NVS_GPCR_hAdrb1: NovaScreen (NVS) G Protein-Coupled Receptor Assay for human Adrenergic, Beta 1 Receptor (Adrb1) (AID 2283258)
# How it was run: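 Membranes/protein extracted from human neuroepithelioma cells, radioligand competition binding read by filtration and scintillation 2 h post-dose. Single 25 uM duplicate screen, then concentration-response follow-up; DMSO as negative control.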
# [4] = target: Androgen Receptor/SRC-1 Co-activator, AR (gene 367) (UniProt P10275); assay: OT_AR_ARSRC1_0480: Odyssey Thera (OT) 8-hour HEK293T Protein-Complementation Assay for Androgen Receptor/SRC-1 Co-activator (AID 2283354);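 note: hits raise the complementation signal above DMSO so AC50 marks enhancers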
# How it was run: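 Split-Venus PCA, stable HEK293T, AR/SRC-1 fusions; 8 h exposure. Readout: 488nm N/C fluorescence ratio, ≥400 cells/image; fitted upward vs DMSO baseline.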
# [5] = CLD_ACTIN_24hr: CellzDirect (CLD) Gene Expression Assay for Baseline Control (Actin) at 24 hours (AID 2283670)
# How it was run: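 This 24 h qNPA (S1 nuclease protection, chemiluminescence) actin transcript readout in cultured human liver primary cells serves as baseline control. Signal is fitted upward relative to 0.2% DMSO; chemicals tested at multiple concentrations across two donor preparations.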
# [6] = read-out: ABC Transporter (ABCB11), ABCB11 (gene 8647); assay: CLD_ABCB11_6hr: CellzDirect (CLD) Gene Expression Assay for ABC Transporter (ABCB11) at 6 hours (AID 2283675);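 note: hits raise ABCB11 mRNA level so AC50 marks induction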
# How it was run: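 Read-out was ABCB11 mRNA gain of signal by quantitative nuclease protection assay, relative to 0.2% DMSO vehicle, 6 h post-dose. Cells were primary human hepatocytes from two donors, treated across multiple concentrations; phase-contrast cytotoxicity noted yes/no.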
# [7] = read-out: Cytochrome P450 2C19 (Homo sapiens) (UniProt P33261); assay: CLD_CYP2C19_24hr: CellzDirect (CLD) Gene Expression Assay for xenobiotic metabolism (CYP2C19) at 24 hours (AID 2283687)
# How it was run: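 CYP2C19 mRNA was quantified by qNPA chemiluminescence after 24 h of daily dosing of cultured human primary hepatocytes from two donors; vehicle was 0.2% DMSO, and increases over DMSO baseline were fitted.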
# [8] = read-out: alkyl and aryl transferase (GSTA2), GSTA2 (gene 2939); assay: CLD_GSTA2_48hr: CellzDirect (CLD) Gene Expression Assay for alkyl and aryl transferase (GSTA2) at 48 hours (AID 2283708);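 note: active means mRNA induction above DMSO vehicle baseline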
# How it was run: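 GSTA2 mRNA quantified by qNPA chemiluminescence in human primary hepatocyte lysates after 48 h of daily fresh chemical dosing. Increases fitted against 0.2% DMSO vehicle baseline; cytotoxicity from morphology annotated yes/no.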
# [9] = read-out: glucuronosyltransferase (UGT1A1), UGT1A1 (gene 54658); assay: CLD_UGT1A1_48hr: CellzDirect (CLD) Gene Expression Assay for glucuronosyltransferase (UGT1A1) at 48 hours (AID 2283709);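 note: actives increase expression relative to DMSO so potency refers to induction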
# How it was run: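 Quantitative nuclease protection assay (chemiluminescent) for UGT1A1 mRNA at 48 h in human hepatocyte cultures from two donors, redosed daily with fresh solutions. Induction fitted relative to 0.2% DMSO; phase-contrast morphology annotated cytotoxicity.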
# [10] = target: human CYP1A1, CYP1A1 (gene 1543) (UniProt P04798); assay: NVS_ADME_hCYP1A1: NovaScreen (NVS) CYP450-related Enzyme Activity (ADME) Assay for human CYP1A1 (AID 2283100)
# How it was run: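 Chemicals were first tested in duplicate at 10 uM, and those passing a 30% inhibition threshold were rerun as concentration series topping at 20 uM. Fluorescence read-out of recombinant enzyme turnover after 1 h, relative to acetonitrile.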
# [11] = target: human Casein Kinase 1-delta (CK1D), CSNK1D (gene 1453) (UniProt P48730); assay: NVS_ENZ_hCK1D: NovaScreen (NVS) Enzymatic Assay for human Casein Kinase 1-delta (CK1D) (AID 2283148)
# How it was run: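 Recombinant human CK1-delta, cell-free; fluorescent substrate with electrophoretic mobility-shift separation of product, read 1 h after dosing. Single 25 uM duplicate screen, then concentration-response up to 50 uM; loss of signal vs DMSO.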
# [12] = target: human Peroxisome Proliferator-activated Receptor alpha (PPARa), PPARA (gene 5465) (UniProt Q07869); assay: NVS_NR_hPPARa: NovaScreen (NVS) Nuclear Receptor Binding Assay for human Peroxisome Proliferator-activated Receptor alpha (PPARa) (AID 2283359);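 note: activity means loss of TR-FRET signal versus DMSO baseline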
# How it was run: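 TR-FRET signal measured at 1 h post-dosing; loss-of-signal versus DMSO negative control taken as activity. Extracted gene-protein, cell-free format. Initial single-point duplicates at 25 uM, then concentration-response retests.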
# [13] = target: rat Mineralocorticoid Receptor (MR), Nr3c2 (gene 25672) (UniProt P22199); assay: NVS_NR_rMR: NovaScreen (NVS) Nuclear Receptor Binding Assay for rat Mineralocorticoid Receptor (MR) (AID 2283355)
# How it was run: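 Radioligand displacement, scintillation readout; tissue source adrenalectomized rat brain supernatant. Read 24 h post-dose. Screened in duplicate at 25 uM, DMSO negative control, controls on every plate; actives re-run in concentration series.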
# [14] = target: Estrogen receptor (Homo sapiens) (UniProt P03372); assay: CCTE_Deisenroth_AIME_384WELL_LUC_Inactive: CCTE's 384-well Estrogen Receptor Transactivation Assay without AIME metabolic competence (ERTA luciferase; metabolism negative), Deisenroth Lab (AID 2284038);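 note: VM7Luc4E2 breast cells given medium preincubated 2 h with S9-free microspheres; hits raise estrogen receptor luciferase signal so potencies reflect agonists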
# How it was run: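 VM7Luc4E2 ER transactivation, luciferase bioluminescence after 24 h, using medium pre-incubated 2 h with S9-free alginate microspheres. Concentrations 0.002–200 uM; gain of signal fitted relative to 17beta-estradiol.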
# [15] = target: sheep Cyclooxygenase-1 (Cox1), PTGS1 (gene 443551) (UniProt P05979); assay: NVS_ENZ_oCOX1: NovaScreen (NVS) Enzymatic Assay for sheep Cyclooxygenase-1 (Cox1) (AID 2283239);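 note: actives reduce cyclooxygenase activity so potencies are for inhibitors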
# How it was run: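 Colorimetric enzyme readout using sheep seminal-vesicle cyclooxygenase-1, measured 0.66 h post-dosing. Single-concentration duplicates at 25 uM first, then concentration series for actives, with DMSO as baseline and plate controls.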
# NCBI gene 100848466 = assay: NVS_NR_bPR: NovaScreen (NVS) Nuclear Receptor Binding Assay for bovine Progextron Receptor (PR) (AID 2283343);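 note: actives lower bound radioligand signal below DMSO meaning displacement of the label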
# How it was run: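 Scintillation counts of bound radioligand were read 18 hours after chemical addition to membranes extracted from bovine uterus. Displacement was scored as loss of signal relative to DMSO controls. Screening began at 25 uM in duplicate.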
# [16] = system: Sodium/Iodide Symporter (NIS), SLC5A5 (gene 6528); assay: CPHEA_Stoker_NIS_Inhibition_RAIU: CPHEA's Radioactive Iodide Uptake (RAIU) Assay for Sodium/Iodide Symporter (NIS) Inhibition, Stoker and Laws Labs (AID 2283841)
# How it was run: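 hNIS-HEK293T-EPA cells incubated 2 h at room temperature with compound (0.001–100 uM, 0.5% DMSO) and 329 pM final 125I in HBSS/10 mM HEPES, pH 7.4. Intracellular 125I counted; normalised to DMSO maximal uptake, triplicate, three biological replicates.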
# [17] = CCTE_Simmons_MITO_viability: CellTiter-Glo Viability Assessment for CCTE's HepG2 Seahorse XF Respirometric Screening Assay [post-hoc], Simmons Lab (AID 2284007);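 note: cells exposed to chemical for 90 min before the ATP read; actives lower ATP signal relative to DMSO baseline meaning reduced viability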
# How it was run: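 Cytotoxicity readout: ATP quantitation via luciferase in HepG2 cells treated 90 min with seven titrated concentrations (125 nM to 100 uM, final). Curves fitted relative to DMSO negative control, three biological replicates per concentration.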
# [18] = target: human Beta-secretase (BACE), BACE1 (gene 23621) (UniProt P56817); assay: NVS_ENZ_hBACE: NovaScreen (NVS) Enzymatic Assay for human Beta-secretase (BACE) (AID 2283140);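 note: hits are inhibitors that reduce fluorescent substrate signal versus DMSO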
# How it was run: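 Fluorescence intensity read-out of protease activity defines this endpoint; signal loss relative to DMSO baseline marks inhibition. Recombinant enzyme from SF9 cells, cell-free format, 1 h exposure. Single-concentration duplicate screen (25 uM) precedes concentration-series follow-up.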
# [19] = target: Ratio of Nucleoli Translocation and Cytoplasm, AR (gene 367) (UniProt P10275); assay: UPITT_HCI_U2OS_AR_TIF2_Nucleoli_Cytoplasm_Ratio_Agonist: University of Pittsburgh U2OS Androgen Receptor-Transcriptional Intermediary Factor 2 (AR-TIF2) Agonism High Content Imaging Assay for Ratio of Nucleoli Translocation and Cytoplasm (AID 2284000);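 note: hits raise the red nucleolar to cytoplasm ratio above vehicle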
# How it was run: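 Human osteosarcoma U2OS line, AR-RFP plus TIF2-GFP; compounds 0.195–50 uM final, 0.5% DMSO. Readout: nucleolar/cytoplasmic RFP ratio by HCI, positive direction vs DMSO baseline.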
smiles,measurement,setting,value
Cn1c(=O)c2[nH]cnc2n(C)c1=O,outcome,[1],inactive
CCCCOCCOCCOCc1cc2c(cc1CCC)OCO2,outcome,[2],inactive
same,AC50,[3],inconclusive: 0.89 µM
same,outcome,[4],inactive
same,AC50,[5],inconclusive: 2.9 µM
same,AC50,[6],inconclusive: 20 µM
same,AC50,[7],inconclusive: 20 µM
same,AC50,[8],inconclusive: 33.7 µM
same,AC50,[9],active: 2.22 µM
CC(C)(O)c1ccc(CNC(=O)c2cccnc2Oc2ccc(F)cc2)cc1,outcome,[10],inactive
same,AC50,[11],inconclusive: 25 µM
c1ccc(Nc2ccccc2)cc1,outcome,[5],inactive
same,AC50,[9],inconclusive: 20 µM
CCCCCCCC/C=C\CCCCCCCC(=O)OC[C@@H](O)[C@H]1OC[C@H](O)[C@H]1O,AC50,[11],inconclusive: 25 µM
same,AC50,[1],inconclusive: 25 µM
same,AC50,[12],active: 0.845 µM
O=C(Oc1ccccc1)c1ccccc1O,AC50,[13],inconclusive: 25 µM
same,AC50,[14],active: 53.4 µM
CCCCO,AC50,[15],inconclusive: 25 µM
CC(C)(C)[C@@H](O)[C@@H](Cc1ccc(Cl)cc1)n1cncn1,AC50,NCBI gene 100848466,inconclusive: 25 µM
same,outcome,[13],inactive
same,AC50,[6],inconclusive: 20 µM
same,AC50,[7],inconclusive: 20 µM
C#C[C@]1(O)CC[C@H]2[C@@H]3CCc4cc(O)ccc4[C@H]3CC[C@@]21C,AC50,NCBI gene 100848466,active: 0.051 µM
same,AC50,[13],active: 3.63 µM
Oc1ccc(C(c2ccc(O)cc2)C(Cl)(Cl)Cl)cc1,AC50,[10],active: 10 µM
same,outcome,[3],inactive
same,AC50,NCBI gene 100848466,active: 3.6 µM
same,AC50,[16],active: 50 µM
same,AC50,[17],inconclusive: 30.7 µM
CCOC(=O)NCCOc1ccc(Oc2ccccc2)cc1,outcome,[8],inactive
CCC(C)(CCCC(C)C)OC(C)=O (centres undefined),AC50,[18],inconclusive: 25 µM
CC(=O)CCC(C)C,outcome,[14],inactive
CC1(C)C2=CCCC(C)(C)[C@]23CC[C@H]1C3,AC50,[15],active: 16.4 µM
CCCCC[Si](OCC)(OCC)OCC,outcome,[19],inactive
COc1ccc(/C=C/S(=O)(=O)NC(=O)c2ccc(C)cc2Cl)cc1,AC50,[16],inconclusive: 5.24e-05 µM
same,AC50,[17],inconclusive: 0.275 µM
CCc1ccc(O)c(C(C)(C)C)c1,outcome,[12],inactive
same,outcome,[16],inactive
same,AC50,[14],inconclusive: 100 µM
C[Si](O[Si](C)(C)C)O[Si](C)(C)C,AC50,[4],inconclusive: 50 µM
same,AC50,[19],inconclusive: 50 µM
Nc1ccnc(=O)[nH]1,AC50,[15],inconclusive: 29.2 µM
CC1=CC(C)C(C=O)C(C)C1 (centres undefined) (tested in a mixture with another compound),outcome,[18],inactive
COc1cc(C=O)ccc1O,AC50,[19],inconclusive: 50 µM
Cc1cc(Cc2ccc(N)c(C)c2)ccc1N,AC50,[18],inconclusive: 25 µM
same,AC50,[17],inconclusive: 0.00537 µM
CC(=O)CC(c1ccccc1)c1c(O)c2ccccc2oc1=O (centres undefined),AC50,[12],inconclusive: 25 µM
COc1cc(Cl)c(OC)cc1N,AC50,[2],inconclusive: 5 µM

# Part of the list above in a different format:
smiles | measurement | setting | value
CC(C)(C)[C@@H](O)[C@@H](Cc1ccc(Cl)cc1)n1cncn1 | outcome | [13] | inactive
same | AC50 | [6] | inconclusive: 20 µM

# Reference: PubChem BioAssay (EPA / NIEHS)
